Data on two sequences can be found in paper PMC6028546, “Control of mitotic chromosome condensation by the fission yeast transcription factor Zas1”.

The series concerns T1, Zas1 (short cDNA ORF, two zinc fingers) (Schizosaccharomyces pombe).
T1 sequence (looked up): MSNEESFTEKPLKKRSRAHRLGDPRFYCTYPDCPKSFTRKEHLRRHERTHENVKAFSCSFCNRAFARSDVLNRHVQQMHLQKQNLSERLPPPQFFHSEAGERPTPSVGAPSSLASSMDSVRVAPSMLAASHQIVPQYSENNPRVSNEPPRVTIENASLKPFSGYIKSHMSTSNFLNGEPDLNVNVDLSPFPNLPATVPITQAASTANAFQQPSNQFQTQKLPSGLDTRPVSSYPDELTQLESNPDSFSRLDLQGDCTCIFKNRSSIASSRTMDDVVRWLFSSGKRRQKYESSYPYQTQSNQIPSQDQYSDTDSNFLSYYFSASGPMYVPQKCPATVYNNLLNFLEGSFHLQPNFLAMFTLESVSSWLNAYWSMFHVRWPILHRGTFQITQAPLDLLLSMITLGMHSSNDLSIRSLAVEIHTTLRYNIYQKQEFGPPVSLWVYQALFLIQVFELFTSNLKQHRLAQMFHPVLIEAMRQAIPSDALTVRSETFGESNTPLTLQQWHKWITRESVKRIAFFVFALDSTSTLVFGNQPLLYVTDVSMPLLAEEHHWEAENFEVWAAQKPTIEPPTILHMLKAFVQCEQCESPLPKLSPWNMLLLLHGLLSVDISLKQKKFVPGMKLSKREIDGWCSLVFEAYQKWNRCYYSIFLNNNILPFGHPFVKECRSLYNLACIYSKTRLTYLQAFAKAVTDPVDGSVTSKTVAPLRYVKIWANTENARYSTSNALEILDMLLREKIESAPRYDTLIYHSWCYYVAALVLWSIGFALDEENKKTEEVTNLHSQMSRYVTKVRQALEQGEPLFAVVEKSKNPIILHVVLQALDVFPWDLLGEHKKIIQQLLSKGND
In words: EMSA. The conditions noted are these: 20 uM ZnCl2, 5 mM MgCl2; EMSA: 10 mM Tris-HCl pH 8.0, 125 mM NaCl, 5 mM MgCl2, 20 uM ZnCl2; 400 nM DNA, 0/200/400/800 nM Zas1; 90 min on ice; 1.8% agarose, Tris-acetate pH 8.7, 6 C; recombinant protein; residues 1-845; label: 5' 6-FAM on strand 1.

Weaker means in comparison with the reference protein, sequence or condition of that experiment. Protein sequences can lack the tags named with them.

As to “AAAGCCTCTGCGAAGGTCGTCTTTCTCTGCATAGATTATT (double strand) [Ppob1 mut]”, the binding result is reported as “binds more weakly”.

As to “AATGGACCTCTGCACAGGACATATAGGATGTGTTATTGT (double strand) [Pcnd1 mut]”, the binding result is given as “binds more weakly”.
